Drawing on PubChem BioAssay AID248 (DTP/NCI, 2004), this text covers T/C and survivor count for 25 compounds.

This assay concerns L1210 leukemia ip in BDF1 mice, survival T/C. As to the kind of experiment: NCI In Vivo Anticancer Drug Screen. Data for tumor model L1210 Leukemia (intraperitoneal) in B6D2F1 (BDF1) mice. To be noted: T/C endpoint: mean survival time, higher T/C = longer survival.
Setting [1] is: dose: 100.0 mg/kg/injection, schedule: Q01DX001 (ip), vehicle: saline.
[2] abbreviates: dose: 200.0 mg/kg/injection, schedule: Q01DX001 (ip), vehicle: saline.
Setting [3] is: dose: 400.0 mg/kg/injection, schedule: Q01DX001 (ip), vehicle: saline.
Setting [4] is: dose: 200.0 mg/kg/injection, schedule: Q04DX003 (ip), vehicle: saline.
Setting [5] is: dose: 400.0 mg/kg/injection, schedule: Q04DX003 (ip), vehicle: Klucel (hydroxypropylcellulose) (HPC).
The mark [6] stands for this setting: dose: 400.0 mg/kg/injection, schedule: Q04DX002 (ip), vehicle: saline with Tween-80.
The mark [7] stands for this setting: dose: 150.0 mg/kg/injection, schedule: Q01DX001 (ip), vehicle: saline.
The mark [8] stands for this setting: dose: 300.0 mg/kg/injection, schedule: Q01DX001 (ip), vehicle: saline.
[9] abbreviates: dose: 400.0 mg/kg/injection, schedule: Q01DX009 (ip), vehicle: saline.
Where [10] appears, read: dose: 400.0 mg/kg/injection, schedule: Q04DX003 (ip), vehicle: saline with Tween-80.
The mark [11] stands for this setting: dose: 400.0 mg/kg/injection, schedule: Q04DX003 (ip), vehicle: saline.

The list is a part of this screen's results and no random one: it gathers tests that were run many times, whatever their T/C, doses with no T/C, and many T/C values between a quarter and a half above the control. Further doses and runs are listed elsewhere. T/C gives the treated animals as a percentage of the vehicle group. Some entries give survivors of the animals treated and no T/C: the source holds a T/C of zero for them, seemingly a mark for toxic or unscored doses. Some doses without a T/C left all or most animals alive at the check, yet need not have been tolerated: the source hardly ever lists a survival T/C far under the control, and the zero likely stands for such cases as well. Counts of survivors are from the toxicity check (mostly the fifth day) where no day follows; animals may have died later. Schedule codes are those of the source, taken here to give the interval after Q, in days (D) or hours (H), and the number of doses after X. Some structures stand for samples that the source files as different forms (salt, stereo form or complex); doses refer to the form tested. Signs of the kind (2×) count equal records among those shown. Some doses were run more than once; the results are listed from low to high. For survival time, the PubChem record calls one and a half times the control and up active, and a quarter to a half above the control has no call in these data; cut-offs in other NCI protocols can differ. Some schedules carry Z or #; the key to these is not given. Some T/C values carry the count of animals alive at the toxicity check (mostly the fifth day); where none is given, no animal had died by that day.

In the case of `Cc1c2cnccc2c(C)c2c1c1ccccc1n2C(C)C`, the T/C runs as follows: (dose: 125.0 mg/kg/injection, schedule: Q01DX009 (ip), vehicle: saline with Tween-80) 132 % of control; (dose: 250.0 mg/kg/injection, schedule: Q01DX009 (ip), vehicle: saline with Tween-80) 144 % of control [5 of 6 alive].

Regarding `CCC1CN2N=Cc3ccccc3C2=N1` (stereo not drawn), the survivor count (dose: 40.0 mg/kg/injection, schedule: Q01DX001 (ip), vehicle: saline) is 3 of 6; the survivor count (dose: 80.0 mg/kg/injection, schedule: Q01DX001 (ip), vehicle: saline) is 0 of 6; the survivor count under setting [1] is listed as 0 of 6; the survivor count under setting [2] is 0 of 6; the survivor count under setting [3] is given as 0 of 6.

Take `S=P(Oc1ccccc1)(N1CC1)N1CC1`: the survivor count is recorded as 6 of 6 under setting [4] and 6 of 6 under setting [3].

As to `CN1Cc2c(ccc3c2OCO3)[C@@H]2[C@H](O)Cc3cc4c(cc3[C@@H]21)OCO4`, the T/C runs as follows: (dose: 150.0 mg/kg/injection, schedule: Q01DX Z (ip), vehicle: carboxymethylcellulose (CMC)) 126 % of control; under setting [5], 136 % of control.

Take `CCc1cc2c(cc1C(=O)CCN1CCCC1)C(C)(C)CCC2(C)C`: the survivor count runs as follows: (dose: 200.0 mg/kg/injection, schedule: Q04DX002 (ip), vehicle: saline with Tween-80) 1 of 3; under setting [6], 0 of 3.

With `Cc1nc(Cl)c(Cl)[nH]1`, the survivor count (dose: 400.0 mg/kg/injection, schedule: Q01DX009 (ip), vehicle: saline with Tween-80) is reported as 0 of 6.

Regarding `NC(=O)NC1CC(c2ccccc2)C(O)(c2ccccc2)C1` (stereo not drawn), the survivor count under setting [3] is listed as 4 of 4.

Consider `C=C(C)C1(Cc2ccccc2)C(=O)NC(=O)NC1=O`, for which the survivor count is, setting by setting: (dose: 75.0 mg/kg/injection, schedule: Q01DX001 (ip), vehicle: saline) 1 of 6; under setting [7], 0 of 6 and 2 of 6; under setting [8], 0 of 6 (2×).

`O=S1(=O)CC(N2CCCCC2)C1`: the survivor count is listed as 2 of 6 under setting [7] and 0 of 6 under setting [8].

Regarding `Nc1nccnc1C(=O)O`, for the setting “dose: 400.0 mg/kg/injection, schedule: Q01DX009 (ip), vehicle: water”, the survivor count was 3 of 6.

Take `O=C(OC1COC(OC(=O)c2ccccc2)C(OC(=O)c2ccccc2)C1OC(=O)c1ccccc1)c1ccccc1` (stereo not drawn): under setting [2], the survivor count is given as 6 of 6.

`CCCN=C(N)C(N)=NCCC`: the survivor count under setting [9] is on record as 1 of 6.

Regarding `COC1(c2ccccc2)OC(C(C)(C)C)=NC1(C)C` (stereo not drawn), the survivor count under setting [10] is listed as 0 of 6.

On to `CC1CC(C)(C)NC(=O)O1` (stereo not drawn), for which the survivor count by setting is: (dose: 150.0 mg/kg/injection, schedule: Q01DX009 (ip), vehicle: other) 0 of 6; (dose: 200.0 mg/kg/injection, schedule: Q01DX001 (ip), vehicle: other) 1 of 6; (dose: 225.0 mg/kg/injection, schedule: Q01DX009 (ip), vehicle: other) 0 of 6; (dose: 335.0 mg/kg/injection, schedule: Q01DX009 (ip), vehicle: other) 0 of 6; (dose: 400.0 mg/kg/injection, schedule: Q01DX001 (ip), vehicle: other) 0 of 6.

Regarding `c1ccc(COCCNCCOCc2ccccc2)cc1`, the survivor count is recorded as 1 of 6 (dose: 100.0 mg/kg/injection, schedule: Q04DX003 (ip), vehicle: Klucel (hydroxypropylcellulose) (HPC)); 0 of 6 (dose: 200.0 mg/kg/injection, schedule: Q04DX003 (ip), vehicle: Klucel (hydroxypropylcellulose) (HPC)); 0 of 6 under setting [5].

Regarding `CN(C)c1ccc(-c2cc(C(=O)O)c3cc4ccccc4cc3n2)cc1`, the survivor count under setting [6] is reported as 2 of 3.

`O=[N+]([O-])c1ccc(/C=N/Nc2c3ccccc3nc3ccccc23)cc1`: the survivor count is recorded as 4 of 4 under setting [1] and 4 of 4 under setting [2].

`Cn1cnc([N+](=O)[O-])c1[Se]c1nc(N)nc2c1ncn2C1CC(O)C(CO)O1` (stereo not drawn): the T/C was 143 % of control (dose: 16.5 mg/kg/injection, schedule: Q01DX009 (ip), vehicle: saline) and 144 % of control [5 of 6 alive] (dose: 25.0 mg/kg/injection, schedule: Q01DX005 (ip), vehicle: saline). The survivor count by setting is: (dose: 50.0 mg/kg/injection, schedule: Q01DX005 (ip), vehicle: saline) 3 of 6; (dose: 100.0 mg/kg/injection, schedule: Q01DX005 (ip), vehicle: saline) 3 of 6.

Turning to `Cc1cc(C(=O)CBr)c(CN2C(=O)c3ccccc3C2=O)c(=O)n1C`, the survivor count is on record as 1 of 6 (dose: 200.0 mg/kg/injection, schedule: Q01DX001 (ip), vehicle: saline with Tween-80) and 0 of 6 (dose: 400.0 mg/kg/injection, schedule: Q01DX001 (ip), vehicle: saline with Tween-80).

`c1ccc(COCc2ccccc2Cn2ccnc2)cc1`: the survivor count runs as follows: (dose: 100.0 mg/kg/injection, schedule: Q04DX003 (ip), vehicle: saline) 4 of 6; under setting [4], 0 of 6; under setting [11], 0 of 6.

In the case of `C=CCN(C(=O)OCC)P(=O)(OCC)OCC`, the survivor count (dose: 100.0 mg/kg/injection, schedule: Q01DX009 (ip), vehicle: saline) is listed as 6 of 6; the survivor count under setting [9] was 0 of 6; the survivor count under setting [11] is listed as 0 of 6.

Regarding `O=C1CC(=O)N(Cc2ccccc2)C(=O)N1`, the survivor count (dose: 400.0 mg/kg/injection, schedule: Q01DX001 (ip), vehicle: carboxymethylcellulose (CMC)) is 4 of 4.

`CNc1ccccc1Cc1ccccc1`: the survivor count (dose: 400.0 mg/kg/injection, schedule: Q01DX009 (ip), vehicle: Klucel (hydroxypropylcellulose) (HPC)) is 5 of 6.

Turning to `NC(c1ccccc1)C(N)c1ccccc1` (stereo not drawn), the survivor count (dose: 200.0 mg/kg/injection, schedule: Q04DX003 (ip), vehicle: other) is on record as 6 of 6; the survivor count (dose: 400.0 mg/kg/injection, schedule: Q04DX003 (ip), vehicle: other) is reported as 0 of 6; the survivor count under setting [10] is reported as 3 of 6.

As to `O=C(O)c1ccc(Br)c2ccccc12`, the survivor count (dose: 300.0 mg/kg/injection, schedule: Q01DX001 (ip), vehicle: carboxymethylcellulose (CMC)) is 2 of 6.
